Laboratory results reported in patent US20170183404A1.

Target: truncDelta mMor1 reconstituted in liposomes (mouse)
Assay: ELISA, periplasmic extract on truncDelta mMor1 liposomes with Dmt1-Dalda

binding: binds
B1: XA8727 (VHH)
VHH: QVQLVESGGGLVQAGGSLRLSCAASGFTFDDYAIAWFRQAPGKEREGVSCISSSDGSTYYADSVKGRFTISNDNAKNTVYLQMNSLKPEDTAVYYCAADLSRSCGRGYRYLEVWGQGTQVTVSS

These are yes or no findings as the source states them, for the method shown. Binding can be weak; no strength is given.
